Test [1] concerns the target human paraoxonase PON-1 (human) (UniProt P27169). Nature of the test: co-purification of the HPBP/PON-1 complex from human plasma (Cibacron affinity gel, then DEAE anion exchange).
The target in test [2] is transcription factor C/EBPβ (UniProt P17676). Nature of the test: ELISA: C/EBPβ adsorbed on the plate, HPBP in solution, detected with anti-HPBP antibodies.

The chains behind the UniProt entries cited, without tags or fusion partners. Residues count along the entry.
UniProt P27169, residues 2-355: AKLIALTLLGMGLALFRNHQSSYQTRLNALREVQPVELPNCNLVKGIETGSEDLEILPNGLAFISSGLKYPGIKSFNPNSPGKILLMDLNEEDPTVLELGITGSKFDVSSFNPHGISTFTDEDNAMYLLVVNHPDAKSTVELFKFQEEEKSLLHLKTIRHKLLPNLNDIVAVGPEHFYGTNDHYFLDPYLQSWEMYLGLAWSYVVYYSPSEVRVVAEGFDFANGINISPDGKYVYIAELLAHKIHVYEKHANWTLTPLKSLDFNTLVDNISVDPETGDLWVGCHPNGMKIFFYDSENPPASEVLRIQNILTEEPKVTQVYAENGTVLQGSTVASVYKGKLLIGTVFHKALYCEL
UniProt P17676: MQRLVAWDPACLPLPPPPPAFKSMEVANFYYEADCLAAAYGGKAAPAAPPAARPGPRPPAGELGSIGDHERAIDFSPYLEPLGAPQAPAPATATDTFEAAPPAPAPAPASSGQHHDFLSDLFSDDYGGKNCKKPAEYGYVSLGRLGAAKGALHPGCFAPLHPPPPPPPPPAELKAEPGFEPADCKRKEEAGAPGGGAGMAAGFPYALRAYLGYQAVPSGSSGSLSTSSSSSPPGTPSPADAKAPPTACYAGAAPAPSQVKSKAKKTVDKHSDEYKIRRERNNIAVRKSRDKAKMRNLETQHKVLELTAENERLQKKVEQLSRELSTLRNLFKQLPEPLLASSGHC

These are yes or no findings as the source states them, for the method shown. For some assays here: In cells and extracts the contact can be indirect. Some binding calls cover weakened binding; strength is not graded here.

B1: Human Phosphate Binding Protein (HPBP) (protein)
chain: DINGGGATLPQKLYLTPDVLTAGFAPYIGVGSGKGKIAFLENKYNQFGTDTTKNVHWAGSDSKLTATELATYAADKEPGWGKLIQVPSVATSVAIPFRKAGANAVDLSVKELCGVFSGRIADWSGITGAGRSGPIQVVYRAESSGTTELFTRFLNAKCTTQPGTFAVTTVFANSYSLGLSPLAGAVAAIGSVGVMAADNDVTTAQGRITYISPDFAAPTLAGLDDATKVARTGKGSSSGGGAEGKSPAAANVSAAISVVPLPAAADRGDPNVWTPVFGAVTGGGVVAYPDSGYPILGFTDLIFSECYANATQTGQVRNFFTKHYGTSANDNAAIQANAFVPLPSNWKAAVRASYLTASNALSIGDSAVCGGKGRPE
As for B1, the binding entry in test [1] and in test [2] was “binds” each time.

Source of the values: patent US20120035098A1.
